PubChem BioAssay AID1259308, NCATS, 2017
In all, the deposit lists about 59,000 reagents; this is a part drawn at random. About 1,510 of all reagents (2.6%) were called active. 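Calls use total luciferase alone and ignore viability, so some active siRNAs may act by altering cell number.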 Reagents against one gene are numbered here. Not all columns of the deposit are shown.

Screen: 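Knock-downs that increase output of a recombinant reporter protein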 (primary screen)
Cell system: human HEK293 embryonic kidney cells stably expressing firefly luciferase (HEK-CMV-Luc2-Hygro)
Knock-down reagent: single siRNA against human genes, 0.8 pmol siRNA per well
Duration: 72 h
Measured: 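Luciferase light (ONE-Glo) measured on one replicate plate set and viability (CellTiter-Glo) on the other, scaled to a negative control siRNA, with robust z-scores and luciferase per cell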
Scale: total luciferase, z-score: higher = more reporter protein produced
Rule for the call: 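An siRNA counts as active if its total luciferase robust z-score exceeds 3; genes with two or more such siRNAs out of three were retested with fresh siRNAs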
Meaning of the calls: active = raised luciferase; inactive = no rise

MIB2 (MIB E3 ubiquitin protein ligase 2) #1 → total luciferase, z-score = 0.963; outcome = inactive
MIB2 (MIB E3 ubiquitin protein ligase 2) #2 → total luciferase, z-score = -0.983; outcome = inactive
MIB2 (MIB E3 ubiquitin protein ligase 2) #3 → total luciferase, z-score = -1.6; outcome = inactive
ATP6AP1L (ATPase H+ transporting accessory protein 1 like (pseudogene)) #1 → total luciferase, z-score = -0.747; outcome = inactive
ATP6AP1L (ATPase H+ transporting accessory protein 1 like (pseudogene)) #2 → total luciferase, z-score = 3.83; outcome = active
ATP6AP1L (ATPase H+ transporting accessory protein 1 like (pseudogene)) #3 → total luciferase, z-score = 0.555; outcome = inactive
CD53 (CD53 molecule) #1 → total luciferase, z-score = 0.658; outcome = inactive
CD53 (CD53 molecule) #2 → total luciferase, z-score = 0.827; outcome = inactive
CD53 (CD53 molecule) #3 → total luciferase, z-score = -0.4; outcome = inactive
RFX2 (regulatory factor X2) #1 → total luciferase, z-score = -2.98; outcome = inactive
RFX2 (regulatory factor X2) #2 → total luciferase, z-score = -0.844; outcome = inactive
RFX2 (regulatory factor X2) #3 → total luciferase, z-score = -0.426; outcome = inactive
EWSR1 (EWS RNA binding protein 1) #1 → total luciferase, z-score = -0.0524; outcome = inactive
EWSR1 (EWS RNA binding protein 1) #2 → total luciferase, z-score = 0.418; outcome = inactive
EWSR1 (EWS RNA binding protein 1) #3 → total luciferase, z-score = -1.87; outcome = inactive
DMXL1 (Dmx like 1) #1 → total luciferase, z-score = 1.16; outcome = inactive
DMXL1 (Dmx like 1) #2 → total luciferase, z-score = 1.61; outcome = inactive
DMXL1 (Dmx like 1) #3 → total luciferase, z-score = 0.683; outcome = inactive
MXI1 (MAX interactor 1, dimerization protein) #1 → total luciferase, z-score = -1.4; outcome = inactive
MXI1 (MAX interactor 1, dimerization protein) #2 → total luciferase, z-score = -2; outcome = inactive
MXI1 (MAX interactor 1, dimerization protein) #3 → total luciferase, z-score = -0.235; outcome = inactive

Part of the list above, set out differently.
gene symbol	reagent	total luciferase, z-score	outcome
ATP6AP1L (ATPase H+ transporting accessory protein 1 like (pseudogene))	2	3.83	active
ATP6AP1L (ATPase H+ transporting accessory protein 1 like (pseudogene))	3	0.555	inactive
